Experimental data taken from patent publication US20120157402A1, “METHODS FOR TREATING BRAIN TUMORS” (priority 2009, published 2012).
At least one compound was matched to its structure with a doubt left.

Tested on: HT1080 xenografts
Test: Tumor growth in nude mice bearing HT1080 xenografts
Format: in vivo, athymic nude mice
Settings: study #24a, 10 mg/kg QD
Experimental: In all of these experiments, HT1080 cells (5×10^6 cells/mouse) were implanted subcutaneously in male athymic nude mice. When tumors had become established, mice were divided into groups (10 mice/group). […] Tumor size was measured by calipers at the beginning and end of treatment. At the completion of Compound administration, the mice were sacrificed, and excised tumors were assayed by ELISA for intratumoral VEGF or other angiogenic factors using methods analogous to those described in Section 9.1.1.1.
Experimental Study Design. HT1080 cells (5×10^6 cells/mouse) were implanted subcutaneously in male athymic nude mice.
Tumor size was measured using calipers at periodic intervals during the study (data shown in Section 9.2.2). […] The study was ended after 18 days, when the vehicle treated tumors reached a mean volume of ˜1755 mm^3. […] Mice were sacrificed, and excised tumors were homogenized in buffer containing protease inhibitors. Both terminal intratumoral and pathologic plasma human VEGF levels were measured using an ELISA that recognizes human VEGF121 and VEGF165 (as described in Section 9.1.1.1). […]
Experimental Design. […] Both intra-tumor and pathologic plasma human VEGF levels were measured using an ELISA that recognizes human VEGF121 and VEGF165. […]
Tumor size was measured by calipers immediately pre-treatment and at the time of sacrifice on Day 1, 2, or 3 (5 mice per group per day). […]

Row | Compound | Growth of HT1080 tumor cells in vivo, qualitative
1 | O=C(Oc1ccc(Cl)cc1)N1CCc2c([nH]c3ccc(Cl)cc23)[C@@H]1c1ccc(OCC[C@H](O)CO)cc1 [Compound 1205] | significantly delayed growth
2 | O=C(Oc1ccc(Cl)cc1)N1CCc2c([nH]c3ccc(Cl)cc23)[C@H]1c1ccc(OCC[C@H](O)CO)cc1 [Compound 1330] | overlapped with the growth of tumors in mice treated with 0.5% HPMC vehicle
